Test results as given in patent US20120087980A1, “STIMULATION OF NEUROREGENERATION BY FLAVONOID GLYCOSIDES” (priority 2010, published 2012).
“Also recorded” adds a separate entry of the source. At least one structure is not confirmed: it was looked up by name or label, or the drawing left a doubt.

Tests used:
Type in all cases: cell-based
NG108-15 cells [1] = assay: Fluorescence of cells transfected with Far Red-vinculin; settings: 40 uM isoquercitrin for 48 hrs, Far Red-vinculin transfected NG108-15 cells
[2] = tested on: primary stem cells, enteric neural stem cells and fibroblasts; assay: Induction of neuronal phenotype in other cell types
RhoA = RhoA G-LISA Activation Assay; settings: isoquercitrin for 48 hrs
Method: FIG. 6 illustrates RhoA activation. […] RhoA activity is depressed following administration of isoquercitrin for 48 hrs.
(§1) Cell culture. The NG108-15 neuroblastoma/glioma cells and ND7/23 rat DRG/mouse neuroblastoma cells were seeded at 10^4 cells/cm^2 on laminin coated wells and stimulated for 48 hours with 40 μM isoquercitrin (Cat No 00140585, Sigma) alone or in combination with either 10 μM Rho Kinase inhibitor Y-27632 (Cat No Y0503, Sigma) or 0.25 μg/ml Rho inhibitor Exoenzyme C3 Transferase (Cat No CT04, Cytoskeleton). Later, isoquercitrin stimulated cells were incubated with 0.2 unit/ml Rho Activator Calpeptin (Cat No CN01, Cytoskeleton) or, alternatively with 0.25 μM Phospholipase C inhibitor U73122 (Cat No 662035, Calbiochem). Live Cell Imaging. During incubation, cells were observed by time-lapse live cell imaging with Cell-IQ (Chip-Man Technologies, Ltd). Quantitative analysis of neurite length/cell was performed using Cell-IQ Analyser Software. Cell imaging by Immunofluorescence. […] The plate was incubated with an HRP detection reagent for 15 min at 37° C. and, after addition of an HRP stop buffer, the absorbance was immediately recorded at 490 nm. […] The purity and concentration were determined using a Nanoprop ND 1000 (Nanoprop Technologies, Delaware, USA) and a Bioanalyzer 2100 (Agilent, Waldbronn, Germany). […]

NG108-15 cells [3] = assay: Immunofluorescence analysis of cells grown on laminin coated wells (DAPI, phalloidin, synaptotagmin-1); settings: 40 uM isoquercitrin
Rho GTPases = assay: Gene expression analysis of Rho GTPases (Real Time RT-PCR)
[4] = tested on: NG108-15 neuroblastoma-glioma hybridoma cells and the ND7/23 neural cell line; assay: Incubation of neural cell lines with 15 flavonoids, neurite formation; settings: screen of 15 flavonoids
Method: as §1, with “Immunofluorescence. Cells were cultured for 48 hrs on a Chamber Slide™ System (Lab-Tek™) under the above described conditions.” for “Immunofluorescence.”

NG108-15 cells [5] = assay: Time-lapse live cell imaging (Cell-IQ), quantitative analysis of neurite length/cell; settings: 40 μM isoquercitrin alone, 48 hrs time-lapse, vs control
[6] = 24 hr isoquercitrin stimulation

O=c1c(O[C@@H]2O[C@H](CO)[C@@H](O)[C@H](O)[C@H]2O)c(-c2ccc(O)c(O)c2)oc2cc(O)cc(O)c12 [isoquercitrin, quercetin-3-β-D-glycoside]
vinculin focal adhesions in neurites (NG108-15 cells [1]): identified in the tips of the neurite processes; also recorded: formation of focal adhesions in the neurite tail
development of extended neuronal phenotype [2]: induced to develop an extended neuronal phenotype
RhoA activation (G-LISA) (RhoA): depressed; also recorded: downregulation
formation of neurites (immunofluorescence) (NG108-15 cells [3]; 48 hrs culture, laminin coated wells): formation of abundant neurites
Synaptotagmin-1 expression in induced neurites (NG108-15 cells [3]; 48 hrs, immunostaining): highly expressed
Rac1 gene expression (Rho GTPases; [6]): down-regulated
RhoA gene expression (Rho GTPases; [6]): down-regulated
RhoQ gene expression (Rho GTPases; [6]): upregulated; also recorded: consistent up-regulation
RhoV gene expression (Rho GTPases; [6]): upregulated
CDC42 gene expression (Rho GTPases; isoquercitrin stimulation (FIGS. 5A-5B)): down-regulated
function at low cell densities [4]: only flavonoid to function at low cell densities
neurite formation ([4]; NG108-15 and ND7/23 cells): significant neurites
neurite length/cell (NG108-15 cells [5]): significant increase
neurite length/cell (NG108-15 cells [5]; listed as Isoquercitrin): increase the length of neurite/cell
